Source: PubChem BioAssay AID1259254 (NCATS, 2017)
In all, the deposit lists about 59,000 reagents; this is a random part of them. About 1,550 of them (2.6%) were called active. 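G2 share is only a proxy for re-replication; each gene was hit by three separate siRNAs, and active genes were retested.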 Raw values are not corrected between plates. Unmarked entries are inactive. The numbers tell different reagents against one gene apart. The record does not give: the amount of reagent.

Screen: 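Genome-wide screen for genes that prevent DNA re-replication in cancer cells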 (primary screen)
System: human HCT116 colorectal cancer cells
Reagent: single siRNA against human genes
Time to read-out: 3 days
Read-out: 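Nuclei stained with Hoechst and imaged; cell-cycle phase assigned by DNA content; G2 share scaled per plate, non-targeting siRNA 0%, GMNN siRNA 100%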
Direction: G2 robust z-score and G2 cells, % of GMNN control: higher = more G2 cells, more excess DNA replication; raw share of cells in G2: higher = larger share of cells with G2 DNA content
Rule for the call: 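An siRNA counts as active if its G2 robust z-score lies at least 5 MADs above the screen median; here such calls match roughly 38% of GMNN control or more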

target gene,reagent,G2 robust z-score,"G2 cells, % of GMNN control",raw share of cells in G2 (%)
KRTAP9-9,1,-0.055,2.58,3.74
KRTAP9-9,2,5.16 (active),39.3,20.8
KRTAP9-9,3,0.838,8.86,5.78
BGLAP,1,-0.627,-1.44,2.89
BGLAP,2,1.98,16.9,12.8
BGLAP,3,1.13,10.9,7.08
SLC35D3,1,-0.0324,2.74,5.29
SLC35D3,2,-0.44,-0.128,3.94
SLC35D3,3,-0.515,-0.655,2.97
FCRL4,1,0.234,4.61,6.49
FCRL4,2,0.339,5.35,7.66
FCRL4,3,0.173,4.19,5.71
C12orf43,1,0.998,9.99,8.93
C12orf43,2,-0.889,-3.29,3.14
C12orf43,3,-0.886,-3.26,1.84
RNF8,1,0.038,3.23,6.57
RNF8,2,1.38,12.6,8.91
RNF8,3,0.102,3.69,4.65
S100G,1,-0.739,-2.23,2.57
S100G,2,-0.786,-2.56,3.65
S100G,3,-0.443,-0.148,3.05
IL11RA,1,1.76,15.4,9.84
IL11RA,2,0.669,7.67,7.83
IL11RA,3,0.312,5.16,7.65

Continued, starting with the last 7 of the part before.
target gene,reagent,G2 robust z-score,"G2 cells, % of GMNN control",raw share of cells in G2 (%)
RNF8,3,0.102,3.69,4.65
S100G,1,-0.739,-2.23,2.57
S100G,2,-0.786,-2.56,3.65
S100G,3,-0.443,-0.148,3.05
IL11RA,1,1.76,15.4,9.84
IL11RA,2,0.669,7.67,7.83
IL11RA,3,0.312,5.16,7.65
TFPI,1,0.222,4.53,6.54
TFPI,2,0.641,7.47,6.63
TFPI,3,2.72,22.1,13.1
DBF4B,1,-0.589,-1.18,2.05
DBF4B,2,-0.763,-2.4,3.45
DBF4B,3,0.515,6.59,7.19
ZNF852,1,-0.121,2.12,4.41
ZNF852,2,1.28,12,7.69
ZNF852,3,0.692,7.84,5.65
DACT3,1,2.92,23.5,11.7
DACT3,2,-0.0848,2.37,3.64
DACT3,3,1.47,13.3,7.72
SLC9C2,1,-0.729,-2.16,4.12
SLC9C2,2,-0.557,-0.954,5.49
SLC9C2,3,0.0891,3.59,5.6
C6orf89,1,1.18,11.3,7.67
C6orf89,2,1.26,11.8,7.18
C6orf89,3,-0.591,-1.19,2.81
DDX1,1,1.32,12.2,8.31
DDX1,2,1.13,10.9,8.98
DDX1,3,-1.02,-4.23,3.45
ARSF,1,-0.572,-1.06,3.6
ARSF,2,-1.05,-4.45,3.49
ARSF,3,-0.82,-2.8,3.77
PRCD,1,0.727,8.08,6.3
PRCD,2,-0.475,-0.373,4.13
PRCD,3,0.736,8.15,6.13
ACSM6,1,-0.306,0.815,4.1
ACSM6,2,4.95,37.8,14.6
ACSM6,3,3.15,25.1,11.8
RHCE,1,-0.304,0.828,5.26
RHCE,2,0.626,7.37,6.6
RHCE,3,-0.163,1.82,5.37
KICS2,1,6.36 (active),47.7,19.8
KICS2,2,-0.696,-1.93,2.32
KICS2,3,-0.39,0.222,3.15
TMCO1,1,-0.73,-2.17,2.83
TMCO1,2,-0.979,-3.92,2.62
TMCO1,3,0.525,6.66,5.39
PAWR,1,0.794,8.55,8.61
PAWR,2,-1.15,-5.09,2.21
PAWR,3,1.61,14.3,8.53
VBP1,1,-0.271,1.06,3.88
VBP1,2,0.649,7.53,8.38
VBP1,3,-0.328,0.663,3.35
